{"source": "PubChem BioAssay AID1159584 (Peter MacCallum Cancer Centre, 2016)", "aim": "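Knock-downs that harm CDH1-null cells more than parental MCF10A cells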 (primary screen)", "cells": "human MCF10A breast epithelial cells, parental and CDH1-null", "knock-down reagent": "siRNA against human genes", "detection": "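Cell viability by CellTiter-Glo ATP luminescence, each line scaled to the mean of mock wells across plates, then CDH1-null over parental ratio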", "reading the numbers": "CDH1-null / parental viability ratio: higher = CDH1-null cells survive relatively better than parental; CDH1-null viability vs mock: higher = more viable CDH1-null cells", "units": "CDH1-null viability vs mock in fraction of mock", "note": "This is a random part of about 18,000 reagents tested. Further read-outs or replicates are left out here. Not given: the amount of reagent, the time to read-out."}
{"target gene": "PPP1R14B (protein phosphatase 1 regulatory inhibitor subunit 14B)", "PubChem SID": "SID134326593", "CDH1-null / parental viability ratio": 1.38, "CDH1-null viability vs mock": 0.91}
{"target gene": "MOB2 (MOB kinase activator 2)", "PubChem SID": "SID152147257", "CDH1-null / parental viability ratio": 1.21, "CDH1-null viability vs mock": 0.88}
{"target gene": "DNHD1 (dynein heavy chain domain 1)", "PubChem SID": "SID135623035", "CDH1-null / parental viability ratio": 0.96, "CDH1-null viability vs mock": 0.78}
{"target gene": "DNHD1 (dynein heavy chain domain 1)", "PubChem SID": "SID135623498", "CDH1-null / parental viability ratio": 1, "CDH1-null viability vs mock": 0.86}
{"target gene": "LYPD1 (LY6/PLAUR domain containing 1)", "PubChem SID": "SID135623125", "CDH1-null / parental viability ratio": 1.4, "CDH1-null viability vs mock": 0.56}
{"target gene": "GNPNAT1 (glucosamine-phosphate N-acetyltransferase 1)", "PubChem SID": "SID135620959", "CDH1-null / parental viability ratio": 0.74, "CDH1-null viability vs mock": 0.53}
{"target gene": "DECR2 (2,4-dienoyl-CoA reductase 2)", "PubChem SID": "SID152147777", "CDH1-null / parental viability ratio": 0.93, "CDH1-null viability vs mock": 0.8}
{"target gene": "SRARP (steroid receptor associated and regulated protein)", "PubChem SID": "SID134322230", "CDH1-null / parental viability ratio": 0.91, "CDH1-null viability vs mock": 0.78}
{"target gene": "NIPAL1 (NIPA like domain containing 1)", "PubChem SID": "SID134325988", "CDH1-null / parental viability ratio": 1.11, "CDH1-null viability vs mock": 0.6}
{"target gene": "CA2 (carbonic anhydrase 2)", "PubChem SID": "SID152152503", "CDH1-null / parental viability ratio": 0.91, "CDH1-null viability vs mock": 0.78}
{"target gene": "RALGAPA2 (Ral GTPase activating protein catalytic subunit alpha 2)", "PubChem SID": "SID152146958", "CDH1-null / parental viability ratio": 1.02, "CDH1-null viability vs mock": 0.95}
{"target gene": "CCDC66 (coiled-coil domain containing 66)", "PubChem SID": "SID152151337", "CDH1-null / parental viability ratio": 0.85, "CDH1-null viability vs mock": 0.73}
{"target gene": "MS4A6A (membrane spanning 4-domains A6A)", "PubChem SID": "SID135622416", "CDH1-null / parental viability ratio": 0.87, "CDH1-null viability vs mock": 0.53}
{"target gene": "GTPBP10 (GTP binding protein 10)", "PubChem SID": "SID135622878", "CDH1-null / parental viability ratio": 0.91, "CDH1-null viability vs mock": 0.73}
{"target gene": "HSPA2 (heat shock protein family A (Hsp70) member 2)", "PubChem SID": "SID152156012", "CDH1-null / parental viability ratio": 0.65, "CDH1-null viability vs mock": 0.6}
{"target gene": "MRPL50 (mitochondrial ribosomal protein L50)", "PubChem SID": "SID135622516", "CDH1-null / parental viability ratio": 0.85, "CDH1-null viability vs mock": 0.47}
{"target gene": "ANKRD40 (ankyrin repeat domain 40)", "PubChem SID": "SID134319192", "CDH1-null / parental viability ratio": 1.36, "CDH1-null viability vs mock": 0.79}
{"target gene": "SAXO5 (stabilizer of axonemal microtubules 5)", "PubChem SID": "SID134326892", "CDH1-null / parental viability ratio": 0.75, "CDH1-null viability vs mock": 0.38}
{"target gene": "CDK20 (cyclin dependent kinase 20)", "PubChem SID": "SID152152456", "CDH1-null / parental viability ratio": 0.87, "CDH1-null viability vs mock": 0.52}
{"target gene": "B4GALNT1 (beta-1,4-N-acetyl-galactosaminyltransferase 1)", "PubChem SID": "SID152148673", "CDH1-null / parental viability ratio": 1.14, "CDH1-null viability vs mock": 0.66}
{"target gene": "CTTNBP2NL (CTTNBP2 N-terminal like)", "PubChem SID": "SID134318037", "CDH1-null / parental viability ratio": 0.97, "CDH1-null viability vs mock": 0.7}
{"target gene": "S1PR5 (sphingosine-1-phosphate receptor 5)", "PubChem SID": "SID134310636", "CDH1-null / parental viability ratio": 0.88, "CDH1-null viability vs mock": 0.74}
{"target gene": "NEDD9", "PubChem SID": "SID135623751", "CDH1-null / parental viability ratio": 1.15, "CDH1-null viability vs mock": 1.08}
{"target gene": "CHCHD7 (coiled-coil-helix-coiled-coil-helix domain containing 7)", "PubChem SID": "SID152150795", "CDH1-null / parental viability ratio": 0.82, "CDH1-null viability vs mock": 0.64}
{"target gene": "A1BG (alpha-1-B glycoprotein)", "PubChem SID": "SID152150373", "CDH1-null / parental viability ratio": 1.01, "CDH1-null viability vs mock": 0.97}
{"target gene": "GRAP (GRB2 related adaptor protein)", "PubChem SID": "SID135622290", "CDH1-null / parental viability ratio": 1.13, "CDH1-null viability vs mock": 0.79}
{"target gene": "FAM171B (family with sequence similarity 171 member B)", "PubChem SID": "SID152150195", "CDH1-null / parental viability ratio": 1.14, "CDH1-null viability vs mock": 0.97}
{"target gene": "LTB4R (leukotriene B4 receptor)", "PubChem SID": "SID135621043", "CDH1-null / parental viability ratio": 1.42, "CDH1-null viability vs mock": 0.88}
{"target gene": "USP36 (ubiquitin specific peptidase 36)", "PubChem SID": "SID152147834", "CDH1-null / parental viability ratio": 1.04, "CDH1-null viability vs mock": 0.85}
{"target gene": "BBS10 (Bardet-Biedl syndrome 10)", "PubChem SID": "SID135623463", "CDH1-null / parental viability ratio": 1.05, "CDH1-null viability vs mock": 0.68}
{"target gene": "VCX (variable charge X-linked)", "PubChem SID": "SID135622558", "CDH1-null / parental viability ratio": 1.11, "CDH1-null viability vs mock": 1}
{"target gene": "HLA-DRA (major histocompatibility complex, class II, DR alpha)", "PubChem SID": "SID152150478", "CDH1-null / parental viability ratio": 1.16, "CDH1-null viability vs mock": 1.08}
{"target gene": "IFNG (interferon gamma)", "PubChem SID": "SID152149716", "CDH1-null / parental viability ratio": 0.9, "CDH1-null viability vs mock": 1.05}
{"target gene": "ANK1 (ankyrin 1)", "PubChem SID": "SID135622031", "CDH1-null / parental viability ratio": 0.92, "CDH1-null viability vs mock": 0.84}
{"target gene": "DCN (decorin)", "PubChem SID": "SID134325065", "CDH1-null / parental viability ratio": 0.94, "CDH1-null viability vs mock": 0.83}

Ordered by “CDH1-null / parental viability ratio” (low to high): some entries from above
{"target gene": "BBS10 (Bardet-Biedl syndrome 10)", "PubChem SID": "SID135623463", "CDH1-null / parental viability ratio": 1.05, "CDH1-null viability vs mock": 0.68}
{"target gene": "VCX (variable charge X-linked)", "PubChem SID": "SID135622558", "CDH1-null / parental viability ratio": 1.11, "CDH1-null viability vs mock": 1}
